From patent US6410558B1, “Fungicides for the control of take-all disease of plants” (Monsanto Technology LLC, priority 1991, dated 2002)
Some results were stated once for a whole list of compounds, not compound by compound. At least one structure is not confirmed: it was looked up by name or label, or the drawing left a doubt.

system: Gg; experiment: Field Tests: seed treatment of wheat and barley in previously infested fields; assay type: in vivo, Gaeumannomyces graminis; conditions: mixed with wheat and barley seed at 0.01 to 50 g active ingredient per kg of seed

Compound	incidence of Gg in previously infested fields compared to check fields seeded with untreated seed
2-Chloro-N-ethyl-6-(9-phenylethenyl)benzamide [Example 116]	reduce the incidence of Gg
2-N,N-dipropyl-6-(trimethylsilyl)benzamide [Example 14]	reduce the incidence of Gg
3-N,N-diethyl-2-(trimethylsilyl)benzamide [Example 15]	reduce the incidence of Gg
CCN(CC)C(=O)c1c(Cl)ccc[c]1[Sn]([CH3])([CH3])[CH3] [Example 7, 2-Chloro-N,N-diethyl-6-(trimethylstannyl)benzamide]	reduce the incidence of Gg
CCNC(=O)c1ccsc1[Si](C)(C)C [Example 70, N-Ethyl-2-(trimethylsilyl)-3-thiophenecarboxamide]	reduce the incidence of Gg
CN(C)NC(=O)c1c(Cl)cccc1[Si](C)(C)C [Example 99, 2-Chloro-6-(trimethylsilyl)-2,2-dimethylhydrazide-benzoic acid]	reduce the incidence of Gg
CCOC(=O)Nc1c(Cl)cccc1[Si](C)(C)C [Example 109, [2-Chloro-6-(trimethylsilyl)phenyl]carbamic acid, ethyl ester]	reduce the incidence of Gg
CC(C)(C)OC(=O)Nc1c(Cl)cccc1[Si](C)(C)C [Example 111, [2-Chloro-6-(trimethylsilyl)phenyl]carbamic acid, 1,1-dimethylethyl ester]	reduce the incidence of Gg
CCNC(=O)c1c(Cl)ccc[c]1[Sn]([CH3])([CH3])[CH3] [Example 115, 2-Chloro-N-ethyl-6-(trimethylstannyl)benzamide]	reduce the incidence of Gg
CC(C)N(O)C(=O)c1c(Cl)cccc1[Si](C)(C)C.[Fe+3].[OH-].[OH-].[OH-] [Example 168, 2-Chloro-N-hydroxy-N-(1-methylethyl)-6-(trimethylsilyl)benzamide, compd. with iron hydroxide (1:1)]	reduce the incidence of Gg
CCNC(=O)n1cccc1[Si](C)(C)C [Example 178, N-Ethyl-2-(trimethylsilyl)-1H-pyrrole-1-carboxamide]	reduce the incidence of Gg
Cc1ccccc1-c1cccc(F)c1C(=O)NCCCl [Example 197, N-(2-Chloroethyl)-2-fluoro-6-(2-methylphenyl)benzamide]	reduce the incidence of Gg
CC(C)(C)[S+]([O-])c1cccc(F)c1C(=O)NCCCl (centres unmarked) [Example 198, N-(2-Chloroethyl)-2-[(1,1-dimethylethyl)sulfinyl]-6-fluorobenzamide]	reduce the incidence of Gg
CC1(c2cccc(F)c2C(=O)NCCCl)CCC1 [Example 199, N-(2-Chloroethyl)-2-fluoro-6-(1-methylcyclobutyl)benzamide]	reduce the incidence of Gg
CCNC(=O)c1sccc1[Si](C)(C)C [Example 248, N-Ethyl-3-(trimethylsilyl)-2-thiophenecarboxamide]	reduce the incidence of Gg
CCNC(=O)c1occc1[Si](C)(C)C [Example 252, N-Ethyl-3-(trimethylsilyl)-2-furancarboxamide]	reduce the incidence of Gg
CCNC(=O)c1sncc1[Si](C)(C)C [Example 259, N-Ethyl-4-(trimethylsilyl)-5-isothiazolecarboxamide]	reduce the incidence of Gg
CCOP(=O)(OCC)N(CC)C(=O)c1c(Cl)cccc1[Si](C)(C)C [Example 278, [2-Chloro-6-(trimethylsilyl)benzoyl]ethylphosphoramidic acid, diethyl ester]	reduce the incidence of Gg
CCN(CC)C(=O)c1c(Cl)cccc1N(C)C(C)(C)C [Example 281, 2-Chloro-6-[(1,1-dimethylethyl)methylamino]-N,N-(diethyl)benzamide]	reduce the incidence of Gg
CCNC(=O)n1nccc1[Si](C)(C)C [Example 284, N-Ethyl-5-(trimethylsilyl)-1H-pyrazole-1-carboxamide]	reduce the incidence of Gg
